Measurements as given in article PMC11116469.
Results are given in words; binding and its absence hold for the method and conditions named. Some binding calls cover weakened binding; strength is not graded here.

Amino acid sequences for entries named in this document (tags omitted).
UniProt Q01844: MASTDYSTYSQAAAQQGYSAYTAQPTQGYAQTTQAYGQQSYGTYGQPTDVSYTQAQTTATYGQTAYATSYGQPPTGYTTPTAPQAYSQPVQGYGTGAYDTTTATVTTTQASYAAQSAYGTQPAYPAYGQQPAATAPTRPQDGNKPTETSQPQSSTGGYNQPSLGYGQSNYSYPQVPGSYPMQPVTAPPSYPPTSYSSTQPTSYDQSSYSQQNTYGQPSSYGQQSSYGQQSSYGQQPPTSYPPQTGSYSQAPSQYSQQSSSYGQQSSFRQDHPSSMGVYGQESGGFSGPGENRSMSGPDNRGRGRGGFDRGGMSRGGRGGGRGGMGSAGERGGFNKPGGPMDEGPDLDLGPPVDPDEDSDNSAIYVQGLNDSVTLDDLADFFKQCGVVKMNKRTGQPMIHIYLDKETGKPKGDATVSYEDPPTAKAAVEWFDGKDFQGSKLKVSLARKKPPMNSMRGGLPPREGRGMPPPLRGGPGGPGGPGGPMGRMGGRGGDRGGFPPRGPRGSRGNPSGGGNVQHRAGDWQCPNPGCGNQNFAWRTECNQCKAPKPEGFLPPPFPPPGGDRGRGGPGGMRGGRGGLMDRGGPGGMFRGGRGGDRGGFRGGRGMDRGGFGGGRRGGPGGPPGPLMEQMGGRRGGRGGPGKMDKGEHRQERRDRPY

Target: EWSR1-SNAP (Ewing Sarcoma breakpoint region 1/EWS RNA binding protein 1, SNAP-tagged) (UniProt Q01844)
Assay: dynamic light scattering (DLS); sub-saturated solutions of one protein; 100 mM KCl and 100 mM KGlu buffers (20 mM Tris pH 7.4), 25 °C; correlation coefficients, size distributions and derived count rates; detects mesoscale clusters; both purified

With “EWSR1-SNAP (Ewing Sarcoma breakpoint region 1/EWS RNA binding protein 1, SNAP-tagged) (from UniProt Q01844 1-656)” the binding was “binds”.
